The list shows a part of the results. The data scatter; read single values as rough.
Tests used:
[1] = compound: ClCC(=O)N[C@@H]1CCCc2ccccc12; test: log2 mean competition ratio of IA-DTB cysteine labelling (DMSO/compound) (log2 ratio); higher = stronger cysteine engagement by compound; conditions: treatment time: 4 h, cell line lysate: HEK293T
Procedure: (§1)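 IA-DTB competitive cysteine chemoproteomics in HEK293T RIPA lysate. Lysates were treated with compound 29 or 30 at 50 or 200 µM for 4 h, then IA-DTB (500 µM, 1 h), trypsin-digested, NeutrAvidin-enriched and analysed by diaPASEF. Competition ratio = intensity DMSO / intensity compound (n=4 treated, n=64 DMSO); binding: mean log2 CR ≥ 1 and p ≤ 0.05 plus QC filters. Target is the cysteine site.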

The chains behind the UniProt entries cited, without tags or fusion partners. Where a name states a change or a piece, a line headed by the entry shows the natural chain unless it says otherwise. Residues count along the entry.
UniProt Q8WU10: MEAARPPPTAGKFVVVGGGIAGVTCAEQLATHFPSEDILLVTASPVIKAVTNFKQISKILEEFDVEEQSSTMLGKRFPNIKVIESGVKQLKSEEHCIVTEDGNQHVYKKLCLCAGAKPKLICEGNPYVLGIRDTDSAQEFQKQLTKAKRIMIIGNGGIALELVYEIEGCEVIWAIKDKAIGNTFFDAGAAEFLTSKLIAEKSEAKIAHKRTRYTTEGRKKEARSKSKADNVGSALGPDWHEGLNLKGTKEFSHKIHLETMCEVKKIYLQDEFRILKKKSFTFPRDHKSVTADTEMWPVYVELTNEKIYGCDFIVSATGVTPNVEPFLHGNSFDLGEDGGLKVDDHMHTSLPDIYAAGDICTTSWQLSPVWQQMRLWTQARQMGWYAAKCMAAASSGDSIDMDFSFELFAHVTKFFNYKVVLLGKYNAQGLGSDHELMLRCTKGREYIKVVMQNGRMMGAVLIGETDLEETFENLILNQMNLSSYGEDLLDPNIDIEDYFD
UniProt Q9H0K6: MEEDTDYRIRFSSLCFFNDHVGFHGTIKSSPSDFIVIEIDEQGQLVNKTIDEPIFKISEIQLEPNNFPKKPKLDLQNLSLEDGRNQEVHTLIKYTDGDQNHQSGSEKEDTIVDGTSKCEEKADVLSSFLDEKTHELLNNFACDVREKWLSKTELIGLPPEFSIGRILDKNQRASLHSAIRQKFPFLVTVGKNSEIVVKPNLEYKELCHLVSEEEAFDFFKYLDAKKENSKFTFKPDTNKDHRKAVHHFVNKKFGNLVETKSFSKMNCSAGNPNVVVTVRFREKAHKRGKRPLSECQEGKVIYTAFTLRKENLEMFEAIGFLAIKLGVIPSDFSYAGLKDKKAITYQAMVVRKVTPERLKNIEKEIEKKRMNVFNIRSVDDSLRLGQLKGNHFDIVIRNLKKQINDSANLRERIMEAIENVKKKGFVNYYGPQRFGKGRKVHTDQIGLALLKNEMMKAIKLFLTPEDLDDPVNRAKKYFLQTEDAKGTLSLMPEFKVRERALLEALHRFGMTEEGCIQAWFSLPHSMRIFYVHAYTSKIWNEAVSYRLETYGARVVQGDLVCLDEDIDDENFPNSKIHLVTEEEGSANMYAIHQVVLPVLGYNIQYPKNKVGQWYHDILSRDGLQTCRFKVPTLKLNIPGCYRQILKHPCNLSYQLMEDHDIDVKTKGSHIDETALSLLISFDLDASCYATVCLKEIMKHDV
UniProt P61006: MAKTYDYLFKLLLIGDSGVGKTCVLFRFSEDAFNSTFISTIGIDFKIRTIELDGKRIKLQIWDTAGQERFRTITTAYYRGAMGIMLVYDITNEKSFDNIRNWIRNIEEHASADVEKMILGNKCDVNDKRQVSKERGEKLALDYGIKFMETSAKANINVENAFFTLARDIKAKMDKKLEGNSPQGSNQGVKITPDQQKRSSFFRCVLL
UniProt P43686: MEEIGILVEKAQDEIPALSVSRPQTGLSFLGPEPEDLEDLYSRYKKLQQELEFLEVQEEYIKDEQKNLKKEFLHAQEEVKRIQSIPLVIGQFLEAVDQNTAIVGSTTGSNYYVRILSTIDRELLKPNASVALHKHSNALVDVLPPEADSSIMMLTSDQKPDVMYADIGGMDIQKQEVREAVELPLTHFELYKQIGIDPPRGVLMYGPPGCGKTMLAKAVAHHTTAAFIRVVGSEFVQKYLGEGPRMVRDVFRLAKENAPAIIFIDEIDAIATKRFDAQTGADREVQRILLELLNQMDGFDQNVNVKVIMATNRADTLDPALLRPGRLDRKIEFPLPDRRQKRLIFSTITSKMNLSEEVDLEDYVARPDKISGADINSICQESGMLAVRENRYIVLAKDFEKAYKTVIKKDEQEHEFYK
UniProt Q5THK1, 1411-1435: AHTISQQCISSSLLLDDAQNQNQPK
UniProt Q9H0H5: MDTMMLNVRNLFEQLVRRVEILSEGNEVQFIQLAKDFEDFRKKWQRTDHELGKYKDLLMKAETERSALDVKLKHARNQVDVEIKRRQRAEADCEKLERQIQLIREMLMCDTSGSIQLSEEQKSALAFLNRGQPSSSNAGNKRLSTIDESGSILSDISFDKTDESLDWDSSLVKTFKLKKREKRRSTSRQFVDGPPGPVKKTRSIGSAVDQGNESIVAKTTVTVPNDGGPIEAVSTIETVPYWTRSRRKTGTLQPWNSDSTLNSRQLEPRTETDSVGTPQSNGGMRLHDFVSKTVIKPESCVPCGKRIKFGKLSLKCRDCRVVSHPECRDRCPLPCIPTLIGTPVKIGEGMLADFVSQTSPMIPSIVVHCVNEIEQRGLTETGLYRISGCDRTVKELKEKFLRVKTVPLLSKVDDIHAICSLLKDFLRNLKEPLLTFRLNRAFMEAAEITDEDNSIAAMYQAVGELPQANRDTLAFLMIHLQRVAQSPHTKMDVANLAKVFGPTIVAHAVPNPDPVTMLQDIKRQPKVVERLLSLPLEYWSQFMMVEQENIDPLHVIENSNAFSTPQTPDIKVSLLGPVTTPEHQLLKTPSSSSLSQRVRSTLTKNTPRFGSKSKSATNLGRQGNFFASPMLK
UniProt Q7Z6K3: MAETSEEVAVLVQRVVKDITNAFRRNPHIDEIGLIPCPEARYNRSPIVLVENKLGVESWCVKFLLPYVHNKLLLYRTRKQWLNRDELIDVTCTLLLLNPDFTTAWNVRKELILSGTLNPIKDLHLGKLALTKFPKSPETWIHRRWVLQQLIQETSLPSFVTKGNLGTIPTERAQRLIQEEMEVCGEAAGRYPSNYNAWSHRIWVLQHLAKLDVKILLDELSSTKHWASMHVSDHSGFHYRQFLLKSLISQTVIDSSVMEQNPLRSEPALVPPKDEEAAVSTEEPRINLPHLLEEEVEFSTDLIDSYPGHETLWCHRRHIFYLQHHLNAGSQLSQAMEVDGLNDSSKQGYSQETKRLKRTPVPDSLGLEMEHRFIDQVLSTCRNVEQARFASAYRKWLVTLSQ
UniProt Q9H974: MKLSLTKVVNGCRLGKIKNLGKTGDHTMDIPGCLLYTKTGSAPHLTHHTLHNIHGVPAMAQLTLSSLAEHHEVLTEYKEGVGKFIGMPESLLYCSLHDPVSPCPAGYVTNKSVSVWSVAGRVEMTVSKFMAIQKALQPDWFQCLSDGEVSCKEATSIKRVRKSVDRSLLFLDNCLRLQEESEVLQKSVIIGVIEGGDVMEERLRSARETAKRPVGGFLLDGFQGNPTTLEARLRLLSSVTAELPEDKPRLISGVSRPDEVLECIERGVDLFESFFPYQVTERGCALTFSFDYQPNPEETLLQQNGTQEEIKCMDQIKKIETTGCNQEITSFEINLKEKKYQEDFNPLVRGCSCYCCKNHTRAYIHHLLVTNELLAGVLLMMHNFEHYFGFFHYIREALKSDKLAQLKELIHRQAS
UniProt Q8WV60: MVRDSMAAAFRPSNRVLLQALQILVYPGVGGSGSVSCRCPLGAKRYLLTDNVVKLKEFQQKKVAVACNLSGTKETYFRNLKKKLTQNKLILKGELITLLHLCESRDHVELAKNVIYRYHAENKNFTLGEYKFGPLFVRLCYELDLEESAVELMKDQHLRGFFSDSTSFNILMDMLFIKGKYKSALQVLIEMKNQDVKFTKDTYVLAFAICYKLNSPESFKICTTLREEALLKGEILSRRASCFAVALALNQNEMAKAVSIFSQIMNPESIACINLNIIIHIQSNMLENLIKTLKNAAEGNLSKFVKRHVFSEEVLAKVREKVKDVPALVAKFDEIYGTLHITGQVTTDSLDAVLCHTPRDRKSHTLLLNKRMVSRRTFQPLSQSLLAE
UniProt Q9Y4B4: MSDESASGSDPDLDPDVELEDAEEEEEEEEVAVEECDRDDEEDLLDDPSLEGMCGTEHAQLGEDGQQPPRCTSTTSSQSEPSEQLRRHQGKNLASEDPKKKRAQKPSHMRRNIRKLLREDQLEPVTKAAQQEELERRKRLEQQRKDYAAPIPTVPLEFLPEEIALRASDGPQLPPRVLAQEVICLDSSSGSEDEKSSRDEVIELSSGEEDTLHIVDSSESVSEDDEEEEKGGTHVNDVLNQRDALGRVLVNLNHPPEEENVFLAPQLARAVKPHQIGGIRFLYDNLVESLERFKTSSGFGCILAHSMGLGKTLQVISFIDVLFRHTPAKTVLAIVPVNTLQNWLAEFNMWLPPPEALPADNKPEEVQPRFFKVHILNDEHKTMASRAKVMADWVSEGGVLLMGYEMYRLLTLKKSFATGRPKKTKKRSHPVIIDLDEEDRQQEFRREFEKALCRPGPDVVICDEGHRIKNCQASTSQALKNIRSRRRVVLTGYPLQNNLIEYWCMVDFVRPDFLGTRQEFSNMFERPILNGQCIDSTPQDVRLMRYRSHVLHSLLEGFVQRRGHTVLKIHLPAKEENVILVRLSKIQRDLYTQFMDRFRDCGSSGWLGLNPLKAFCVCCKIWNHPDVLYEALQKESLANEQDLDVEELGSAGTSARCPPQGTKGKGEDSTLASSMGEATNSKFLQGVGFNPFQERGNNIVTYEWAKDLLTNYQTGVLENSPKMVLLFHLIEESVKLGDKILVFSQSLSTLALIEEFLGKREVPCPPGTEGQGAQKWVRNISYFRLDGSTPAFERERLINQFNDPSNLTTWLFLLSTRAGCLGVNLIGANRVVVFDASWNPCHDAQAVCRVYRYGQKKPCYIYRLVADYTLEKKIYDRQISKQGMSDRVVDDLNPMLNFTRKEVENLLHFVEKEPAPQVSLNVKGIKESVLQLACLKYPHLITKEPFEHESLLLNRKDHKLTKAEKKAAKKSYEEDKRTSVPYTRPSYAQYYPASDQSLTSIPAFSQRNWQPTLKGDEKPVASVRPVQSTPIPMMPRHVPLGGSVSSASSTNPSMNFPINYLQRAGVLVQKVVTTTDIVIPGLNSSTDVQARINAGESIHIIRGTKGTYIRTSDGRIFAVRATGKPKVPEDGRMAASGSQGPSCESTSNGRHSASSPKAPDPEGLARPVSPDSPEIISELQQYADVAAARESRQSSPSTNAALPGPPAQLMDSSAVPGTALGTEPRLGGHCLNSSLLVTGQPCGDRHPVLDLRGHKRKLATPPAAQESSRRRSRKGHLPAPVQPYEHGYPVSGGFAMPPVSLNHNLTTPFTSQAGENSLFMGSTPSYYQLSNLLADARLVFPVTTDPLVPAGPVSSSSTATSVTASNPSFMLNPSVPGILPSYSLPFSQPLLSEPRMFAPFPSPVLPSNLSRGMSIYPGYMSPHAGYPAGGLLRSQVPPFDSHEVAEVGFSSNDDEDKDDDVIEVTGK
UniProt Q92696: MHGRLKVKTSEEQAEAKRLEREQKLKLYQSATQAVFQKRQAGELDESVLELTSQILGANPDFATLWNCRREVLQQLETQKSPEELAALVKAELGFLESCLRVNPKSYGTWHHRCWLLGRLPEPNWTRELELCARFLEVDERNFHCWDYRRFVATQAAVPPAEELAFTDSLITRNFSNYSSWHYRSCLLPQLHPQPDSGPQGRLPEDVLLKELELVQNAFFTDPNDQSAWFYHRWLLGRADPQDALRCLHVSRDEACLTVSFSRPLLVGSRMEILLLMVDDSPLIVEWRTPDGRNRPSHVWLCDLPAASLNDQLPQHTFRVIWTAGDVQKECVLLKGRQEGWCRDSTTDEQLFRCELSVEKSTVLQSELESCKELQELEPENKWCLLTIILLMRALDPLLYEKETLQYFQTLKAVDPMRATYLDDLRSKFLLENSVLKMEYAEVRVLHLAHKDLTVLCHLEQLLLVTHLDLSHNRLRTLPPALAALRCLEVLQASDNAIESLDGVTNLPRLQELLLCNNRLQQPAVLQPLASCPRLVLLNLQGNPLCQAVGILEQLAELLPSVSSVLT

[2] = compound: ClCC(=O)N[C@H]1CCCc2ccccc12; test: as above; conditions: treatment time: 4 h, cell line lysate: HEK293T
Procedure: as §1

Target | log2 mean competition ratio ([1]; 50 µM) | log2 mean competition ratio ([1]; 200 µM) | log2 mean competition ratio ([2]; 50 µM) | log2 mean competition ratio ([2]; 200 µM)
R3HCC1L C469 | 0.316 | 0.282 | -0.00495 | 0.214
PYROXD1 C122 (UniProt Q8WU10) | 0.46 | 0.232 | -0.11 | 0.0404
PUS7L C142 (UniProt Q9H0K6) | 0.0419 | 0.00628 | -0.111 | 0.015
RAD50 C53 |  | -0.266 |  | 
QSER1 C235 | -0.544 | 0.0254 | -0.178 | 0.126
RAB8A C123 (UniProt P61006) | -0.393 | -0.0275 | -0.315 | -0.274
RAD50 C133 | 0.019 | 0.273 | -0.378 | 0.269
PSMC4 C379 (UniProt P43686) | -0.347 | 0.336 | -0.266 | 0.122
PRR14L C1418 (UniProt Q5THK1) | 0.143 | 0.297 | 0.0234 | -0.0588
RACGAP1 C419 (UniProt Q9H0H5) | 0.201 | -0.171 | -0.255 | -0.421
RAD50 C48 | -0.134 | -0.109 | 0.185 | 0.0501
PTAR1 C37 (UniProt Q7Z6K3) | 0.0593 | 0.27 | 0.242 | 0.000398
R3HCC1L C147 | -0.216 | 0.286 | -0.367 | -0.0182
QTRT2 C324 (UniProt Q9H974) | 0.131 | 0.139 | 0.0988 | 0.0137
PTCD2 C67 (UniProt Q8WV60) | 0.0285 | -0.031 | 0.378 | -0.0437
RAD54L2 C601 (UniProt Q9Y4B4) | 0.184 | -0.17 | 0.328 | -0.0262
RABGGTA C354 (UniProt Q92696) | -0.131 | -0.244 | -0.0315 | -0.207
PSMC5 C112 | -0.16 | 0.0911 | 0.0314 | 0.166

An excerpt taken from the entries so far:
Target | log2 mean competition ratio ([1]; 50 µM) | log2 mean competition ratio ([1]; 200 µM) | log2 mean competition ratio ([2]; 50 µM) | log2 mean competition ratio ([2]; 200 µM)
PYROXD1 C122 (UniProt Q8WU10) | 0.46 | 0.232 | -0.11 | 0.0404
PUS7L C142 (UniProt Q9H0K6) | 0.0419 | 0.00628 | -0.111 | 0.015

Source: the supplement of paper PMC11732987, “Enantioselective OTUD7B fragment discovery through chemoproteomics screening and high-throughput optimisation” (Communications Chemistry, 2025)
